Taken from: PubChem BioAssay AID504764 (Drosophila RNAi Screening Center, 2011)
The screen tested about 22,000 reagents; below is a random part of those that have a named target and a result. Of all reagents, 403 (1.9%) are marked active. 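Unnormalised raw counts per well; ratio z-scores behind the hit calls and whether each hit raises or lowers signal are not deposited.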 Not stated in the record: the amount of reagent.

Test: 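Genome-wide screen for regulators of Notch-driven gene expression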 (primary screen)
Cell system: Drosophila Kc167 cells
Reagent: long dsRNA against Drosophila genes
Time to read-out: about 5 days (4 days dsRNA, then 24 h after transfection)
Treatment: transfection of constitutively active membrane-tethered Notch lacking the extracellular domain, read 24 h later
Read-out: 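Light from a Notch-responsive E(spl)m3 luciferase reporter under active Notch, with control-promoter and no-Notch reporter wells to normalise; raw counts from paired wells a and b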
Scale: induced reporter light, run 1, well a and induced reporter light, run 1, well b: higher = more light from the Notch target reporter with active Notch; control promoter light, run 1, well a and control promoter light, run 1, well b: higher = more light from the viral control promoter (cell number, transfection, viability); uninduced reporter light, run 1, well a: higher = more light from the Notch target reporter without active Notch
Hit rule: 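Hit if the duplicate-averaged log2 ratio of induced to control-promoter light gives a plate-wise z beyond ±2, or induced to uninduced beyond ±1.8; weak-control or discordant-duplicate wells dropped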
Meaning of the calls: active = modifier hit (raised or lowered Notch signal); inactive = not a hit

Strump (Strumpellin) [DRSC09872] — induced reporter light, run 1, well a: 1.63e5; induced reporter light, run 1, well b: 1.46e5; control promoter light, run 1, well a: 2.04e5; control promoter light, run 1, well b: 2.21e5; uninduced reporter light, run 1, well a: 8665; outcome: inactive
Hinfp (Histone H4 transcription factor) [DRSC18484] — induced reporter light, run 1, well a: 1.13e5; induced reporter light, run 1, well b: 95535; control promoter light, run 1, well a: 1.52e5; control promoter light, run 1, well b: 1.76e5; uninduced reporter light, run 1, well a: 8305; outcome: inactive
Trissin [DRSC14994] — induced reporter light, run 1, well a: 2.97e5; induced reporter light, run 1, well b: 3.29e5; control promoter light, run 1, well a: 2.61e5; control promoter light, run 1, well b: 2.70e5; uninduced reporter light, run 1, well a: 18400; outcome: inactive
Gpdh1 (Glycerol-3-phosphate dehydrogenase 1) [DRSC03336] — induced reporter light, run 1, well a: 1.60e5; induced reporter light, run 1, well b: 1.94e5; control promoter light, run 1, well a: 1.71e5; control promoter light, run 1, well b: 1.98e5; uninduced reporter light, run 1, well a: 14885; outcome: inactive
pippin [DRSC04489] — induced reporter light, run 1, well a: 1.86e5; induced reporter light, run 1, well b: 1.92e5; control promoter light, run 1, well a: 2.02e5; control promoter light, run 1, well b: 2.05e5; uninduced reporter light, run 1, well a: 13830; outcome: inactive
mirr (mirror) [DRSC11369] — induced reporter light, run 1, well a: 1.30e5; induced reporter light, run 1, well b: 1.60e5; control promoter light, run 1, well a: 1.75e5; control promoter light, run 1, well b: 1.99e5; uninduced reporter light, run 1, well a: 8740; outcome: inactive
kto (kohtalo) [DRSC10983] — induced reporter light, run 1, well a: 53170; induced reporter light, run 1, well b: 53275; control promoter light, run 1, well a: 21810; control promoter light, run 1, well b: 31595; uninduced reporter light, run 1, well a: 5025; outcome: inactive

2 successive records already listed, quoted:
Gpdh1 (Glycerol-3-phosphate dehydrogenase 1) [DRSC03336] — induced reporter light, run 1, well a: 1.60e5; induced reporter light, run 1, well b: 1.94e5; control promoter light, run 1, well a: 1.71e5; control promoter light, run 1, well b: 1.98e5; uninduced reporter light, run 1, well a: 14885; outcome: inactive
pippin [DRSC04489] — induced reporter light, run 1, well a: 1.86e5; induced reporter light, run 1, well b: 1.92e5; control promoter light, run 1, well a: 2.02e5; control promoter light, run 1, well b: 2.05e5; uninduced reporter light, run 1, well a: 13830; outcome: inactive

The list goes on:
sff (sugar-free frosting) [DRSC10590] — induced reporter light, run 1, well a: 1.23e5; induced reporter light, run 1, well b: 1.51e5; control promoter light, run 1, well a: 80305; control promoter light, run 1, well b: 96255; uninduced reporter light, run 1, well a: 11685; outcome: inactive
CG4069 [DRSC10396] — induced reporter light, run 1, well a: 1.04e5; induced reporter light, run 1, well b: 80490; control promoter light, run 1, well a: 61190; control promoter light, run 1, well b: 40140; uninduced reporter light, run 1, well a: 8245; outcome: inactive
Cp16 (Chorion protein 16) [DRSC11119] — induced reporter light, run 1, well a: 1.65e5; induced reporter light, run 1, well b: 1.78e5; control promoter light, run 1, well a: 2.47e5; control promoter light, run 1, well b: 2.21e5; uninduced reporter light, run 1, well a: 9342; outcome: inactive
CG9992 [DRSC20226] — induced reporter light, run 1, well a: 1.92e5; induced reporter light, run 1, well b: 1.92e5; control promoter light, run 1, well a: 2.88e5; control promoter light, run 1, well b: 2.27e5; uninduced reporter light, run 1, well a: 12728; outcome: inactive
Zasp52 (Z band alternatively spliced PDZ-motif protein 52) [DRSC06269] — induced reporter light, run 1, well a: 96010; induced reporter light, run 1, well b: 95640; control promoter light, run 1, well a: 85440; control promoter light, run 1, well b: 1.09e5; uninduced reporter light, run 1, well a: 16700; outcome: inactive
Zasp52 (Z band alternatively spliced PDZ-motif protein 52) [DRSC07121] — induced reporter light, run 1, well a: 73535; induced reporter light, run 1, well b: 1.37e5; control promoter light, run 1, well a: 2.33e5; control promoter light, run 1, well b: 1.94e5; uninduced reporter light, run 1, well a: 13500; outcome: inactive
